{
  "source": "patent US20230065562A1",
  "about": "“DUAL CONTROLS FOR THERAPEUTIC CELL ACTIVATION OR ELIMINATION” (Bellicum Pharmaceuticals, Inc., priority 2015, published 2023)",
  "key": {"[1]": {"tested_on": "T cells expressing iC9", "experiment": "T cell killing assay with caspase 3/7 green reagent monitored by IncuCyte, iC9", "format": "cell-based, human", "settings": "increasing doses, PBMCs from 3 donors, FIG. 108B"}, "[2]": {"tested_on": "iC9 T cells (pBP0220, GFP-Fluc)", "experiment": "In vivo apoptotic activation in NSG mice, iC9 T cells (IVIS imaging, spleen FACS)", "design": "species or system mouse", "settings": "5 mg/kg rimiducid or 10 mg/kg rapamycin i.p., FIGS. 109B & C", "experimental": "(§1) PBMCs from donor 676 were activated and co-transduced with one of the off-switches and GFP-Fluc retroviruses. Eleven days after transduction, cells were analyzed for transduction efficiency with GFP and anti-CD3/anti-CD19 antibodies (FIG. 109A). […] The CD19^+ MFI for the different T cell populations were: iC9=15.07, iRC9=14.38, and iRmC9=13.39. The cells were collected, counted, washed, and resuspended at 1×10^6 cells in 100 μl PBS for each tail vein mouse injection (Table 10) (time=−18 hr). […] IVIS imaging was performed at −14, 0, 5, 24 and 29 hours. Mice were sacrificed and spleens were collected for FACS analysis with hCD3, hCD19 and mCD45 antibodies. […] The higher percentage of remaining iRmC9 T cells observed may be due to an artifact of normalizing the no drug group.\n(§2) PBMCs from donor 676 were activated and co-transduced with retroviruses encoding the pBP0220, 1310, 1327 vectors and the GFP-Fluc plasmid. (FIG. 109A) Eleven days post transduction, the cells were analyzed for CD19 and GFP transduction efficiency prior to injection into mice. (FIGS. 109B & C) NSG mice were injected i.v. with 107 T cells co-transduced with GFP-Fluc per mouse and suicide drugs were injected i.p. the next day. Bioluminescence of cells was assessed at −14, 0, 5, 24, and 29 hours post-drug administration. […]"}, "[3]": {"tested_on": "T cells expressing iRC9", "experiment": "T cell killing assay with caspase 3/7 green reagent monitored by IncuCyte, iRC9", "format": "cell-based, human", "settings": "increasing doses, PBMCs from 3 donors, FIG. 108B"}, "[4]": {"tested_on": "293T cells", "experiment": "SeAP reporter assay: iC9 without FRB-Caspase-9 (controls)", "format": "cell-based", "settings": "iC9 with control vector or FRB without caspase fusion", "text": "(FIGS. 39 and 40). iC9 (FKBPv12-Caspase-9) was cotransfected with a control vector expressing only an epitope tag (FIG. 39) or a vector containing FRB without caspase fusion, but instead with a short, irrelevant tag (FIG. 40).\nFIG. 39—FRB-Caspase-9 is required for a rapamycin-induced cell death switch. 293T cells were transfected with SRα-SeAP (pBP0046), pS-NLS-E and pSH1-FKBPv12-Caspase9 (pBP0044).\nFIG. 40—Caspase-9 fusion with FRB is required for a rapamycin-induced cell death switch. 293T cells were transfected with SRα-SeAP (pBP0046), pSH1-FRBL-VP16 (pBP0731) (4) and pSH1-FKBPv12-Caspase9 (pBP0044). […] Loss of reporter activity is a proxy for the loss of cell viability. Reporter activity is expressed as a percentage of the average of 8 wells containing no drug. Drug-containing wells were assayed in triplicate wells."}, "[5]": {"tested_on": "iRC9 T cells (pBP1310, GFP-Fluc)", "experiment": "In vivo apoptotic activation in NSG mice, iRC9 T cells (IVIS imaging, spleen FACS)", "design": "species or system mouse", "settings": "10 mg/kg rapamycin i.p., FIGS. 109B & C", "experimental": "as §1, §2"}, "[6]": {"tested_on": "primary T cells", "experiment": "Primary T cells with iC9 and 0-3 tandem FRBL domains, CD19hi flow cytometry", "format": "cell-based, human", "settings": "cells expressing Caspase-9 and FRBL2 or FRBL3; 24 and 48 hours"}, "[7]": {"tested_on": "iRmC9 T cells (pBP1327, GFP-Fluc)", "experiment": "In vivo apoptotic activation in NSG mice, iRmC9 T cells (IVIS imaging, spleen FACS)", "design": "species or system mouse", "settings": "5 mg/kg rimiducid or 10 mg/kg rapamycin i.p., FIGS. 109B & C", "experimental": "as §1, §2"}, "[8]": {"tested_on": "Raji-GFP cells", "experiment": "Raji-GFP coculture with CD19 CAR-T cells (flow cytometry)", "format": "cell-based, human", "settings": "2 nM, E:T 1:5, seven days"}},
  "note": "At least one compound was matched to its structure with a doubt left.",
  "data": [
    {"molecule": "CO[C@H]1C[C@@H]2CC[C@@H](C)[C@@](O)(O2)C(=O)C(=O)N2CCCC[C@H]2C(=O)O[C@H]([C@H](C)C[C@@H]2CC[C@@H](O)[C@H](OC)C2)CC(=O)[C@H](C)/C=C(\\C)[C@@H](O)[C@@H](OC)C(=O)[C@H](C)C[C@H](C)/C=C/C=C/C=C/1C", "note": "[rapamycin]", "values": [
      {"measurement": "activation of iC9 in T cells (caspase 3/7)", "setting": "[1]", "result": "but not iC9"},
      {"measurement": "removal of iC9 T cells / bioluminescence signal (IVIS imaging)", "setting": "[2]", "result": "higher signal compared to the respective no drug group"},
      {"measurement": "activation of iRC9 in T cells (caspase 3/7)", "setting": "[3]", "result": "able to activate"},
      {"measurement": "cell death (loss of SeAP reporter) without FRB-Caspase-9", "setting": "[4]", "result": "did not promote cell death"},
      {"measurement": "removal of iRC9 T cells (IVIS imaging)", "setting": "[5]", "result": "induced removal"},
      {"measurement": "percentage of CD19hi cells with increasing drug", "setting": "[6]", "result": "decreased"},
      {"measurement": "removal of iRmC9 T cells (IVIS imaging)", "setting": "[7]", "result": "induced removal"},
      {"measurement": "CAR-T cells with FwtFRBC9/MC.FvFv", "setting": "[8]", "result": "cause cell death"}
    ]}
  ]
}
